From patent CN116724055A
These are yes or no findings as the source states them, for the method shown. Some binding calls cover weakened binding; strength is not graded here.

T1: 嵌合IL1RAP.H2 (鼠; 人) (UniProt Q61730)
T1 sequence: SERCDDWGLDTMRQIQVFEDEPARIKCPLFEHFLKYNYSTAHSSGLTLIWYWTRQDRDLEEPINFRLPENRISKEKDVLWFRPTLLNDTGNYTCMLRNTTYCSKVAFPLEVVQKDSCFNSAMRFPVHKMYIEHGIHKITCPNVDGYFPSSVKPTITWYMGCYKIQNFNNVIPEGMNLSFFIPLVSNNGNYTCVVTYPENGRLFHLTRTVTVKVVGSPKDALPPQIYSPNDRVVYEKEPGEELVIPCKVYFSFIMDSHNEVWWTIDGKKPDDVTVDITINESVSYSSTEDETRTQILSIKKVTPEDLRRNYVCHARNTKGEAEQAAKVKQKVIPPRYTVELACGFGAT

B1: h48D2 VH5.GL:VL4 (antibody, human IgG1, kappa, L234A L235A, V domains shown)
VH: QEQLEESGGGLVKPGGTLSLTCTVSGPSLSHFDITWIRQPPGKGLEWIGTISPGVSTYYASWAKSRVTISVDTSLNTVSLKLSSVTAADTATYFCARGGVGSSWKAFDLWGPGTLVTISS
VL: ELVMTQSPSSVSASVGDRVTITCQASESISTALAWYQQKPGKAPKLLIYKASTLPSGVPSRFSGSGSGTDFTLTINSLQPEDFATYYCQQGFSSGNVHNAFGGGTKVEIKR
B2: h48D2 VH1:VL4 (antibody, human IgG1, kappa, L234A L235A, V domains shown)
VH: EVQLEESGGGLVKPGGSLRLSCAASGPSLSHFDITWVRQAPGKGLEWVSTISPGVSTYYASWAKSRFTISRDNSKNTLYLQMNSLRAEDTAVYYCARGGVGSSWKAFDLWGRGTLVTVSS
VL: ELVMTQSPSSVSASVGDRVTITCQASESISTALAWYQQKPGKAPKLLIYKASTLPSGVPSRFSGSGSGTDFTLTINSLQPEDFATYYCQQGFSSGNVHNAFGGGTKVEIKR
B3: h48D2 VH1:VL5 (antibody, human IgG1, kappa, L234A L235A, V domains shown)
VH: EVQLEESGGGLVKPGGSLRLSCAASGPSLSHFDITWVRQAPGKGLEWVSTISPGVSTYYASWAKSRFTISRDNSKNTLYLQMNSLRAEDTAVYYCARGGVGSSWKAFDLWGRGTLVTVSS
VL: APVLTQSPATLEASVGDRVTITCQASESISTALAWYQQKPGQPPKLLIYKASTLPSGVPSRFSGSGSGTEFTLTISDLESDDAATYYCQQGFSSGNVHNAFGGGTEVVVKR
B4: h48D2 VH2:VL1 (antibody, human IgG1, kappa, L234A L235A, V domains shown)
VH: EVQLVESGGALVQPGGSLRLSCIVSGPSLSHFDITWFRQAPGKGLEWVATISPGVSTYYASWAKSRFTISTDTSKNTLFLQMDSLRAEDTAVYYCARGGVGSSWKAFDLWGPGTLVTVSS
VL: DIVMTQSPSSLSASVGDRVTITCQASESISTALAWYQQKPGKAPKLLIYKASTLPSGVPSRFSGSGSGTDFTLTISSLQPEDFATYYCQQGFSSGNVHNAFGGGTKVVIKR

How the values were obtained:
[1] = molecular target: 重组mfIL1RAP aa21-367 (食蟹猴 (Macaca fascicularis)); assay: ELISA on coated IL1RAP orthologs
嵌合IL1RAP.H2 (鼠; 人) = molecular target: T1, 嵌合IL1RAP.H2 (鼠; 人); assay: ELISA on coated chimeric murine/human IL1RAP
[2] = molecular target: 重组mfIL1RAP aa21-367 (食蟹猴 (Macaca fascicularis)); assay: binding ELISA, coated mfIL1RAP aa21-367

Row | Binder | binding [1] | binding (嵌合IL1RAP.H2 (鼠; 人)) | binding [2]
1 | B1 | binds | binds | binds
2 | B2 |  |  | binds
3 | B3 |  |  | binds
4 | B4 |  |  | binds
